{"source": "PubChem BioAssay AID1347423", "about": "(Functional Genomics Laboratory (NCATS/FGL), 2020)", "note": "Out of some 52,000 sequences screened, about 210 (0.4%) were called active.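 Rule for the calls: active = gene whose silencing raises cell survival under the drug, median off-target-corrected z-score across its silencing RNAs 2 or more; inactive = the rest.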 The list shows a part of the results."}
{"experiment": "Resistance to Poly (ADP-Ribose) Polymerase inhibitor: Gene Identification via Genome-wide siRNA Screen", "conditions": "mouse BRCA2 R2336H ES cells, olaparib, CellTiter-Glo viability; active compounds read high", "procedure,_shortened": "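Mouse BRCA2 R2336H ES cells were reverse-transfected with siRNA (20 nM final), treated at 48 h with 500 nM olaparib, and read by CellTiter-Glo after 72 h. Scores: MAD-based z per siRNA, median per gene, seed off-target correction.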"}
{"sequence": "CGCAGCCUUUACCUCCGAATT against BC052360", "z-score": "inactive: 0.543"}
{"sequence": "CCUAAACUACAGGAAUUUATT against D830014E11Rik", "z-score": "inactive: 0.81"}
{"sequence": "CCCACAGUUCUGAAGGGAGTT against Olfr1215", "z-score": "inactive: 0.58"}
{"sequence": "GGUACUGGAAAGAAAUGAGTT against Slac2b", "z-score": "inactive: 0.68"}
{"sequence": "CGAUUUUCCUCAAUAUCUCTT against Pcdhgc4", "z-score": "inactive: 0.352"}
{"sequence": "GGGACCAGAACAAAUACAATT against Klc3", "z-score": "inactive: -0.49"}
{"sequence": "AGUAUGGCAAAAGGGAACATT against LOC435565", "z-score": "inactive: 0.643"}
{"sequence": "CCAUUCGAUACCUCGUGCATT against Dhps", "z-score": "inactive: 2.72"}
{"sequence": "GGUUCUACCUCAAGAUGUUTT against Srd5a2", "z-score": "inactive: -1.13"}
{"sequence": "GCAGCUAAAACAAGUUUGATT against Sntg2", "z-score": "inactive: 0.0958"}
{"sequence": "GGACCUUCGGAAUGACGAGTT against Rhoa", "z-score": "inactive: -1.69"}
{"sequence": "GGAGAGAUGAGAUUUUUCATT against E130016E03Rik", "z-score": "inactive: 1.83"}
{"sequence": "GCAUACCGGAUAAACUGAATT against Apoc1", "z-score": "inactive: 2.23"}
{"sequence": "CCGCGUGACCAACUUUGUGTT against Map3k7ip1", "z-score": "inactive: 0.606"}
{"sequence": "GGAAAGACAGAAUAAUCCATT against Sparc", "z-score": "inactive: 0.00144"}
{"sequence": "GGAUAGUGUGGUUUUAUAUTT against BC004701", "z-score": "inactive: -0.0842"}
{"sequence": "GCAAGAACGCAAGAUUCAATT against Acoxl", "z-score": "inactive: 1.12"}
{"sequence": "CGUAUUGGUGGGAGAAAGATT against Parva", "z-score": "inactive: -0.65"}
{"sequence": "GGUAGAAGAAUGCAUAAUGTT against Sema3e", "z-score": "inactive: 1.59"}
{"sequence": "GGUGACAAGGAGAAAGAUGTT against Rnf151", "z-score": "inactive: -0.269"}
{"sequence": "GGGCCUAUGUGCUUUAUAUTT against Usp8", "z-score": "inactive: -2.31"}
{"sequence": "GGAUUCUGAAGAAAACGGGTT against Ibsp", "z-score": "inactive: 0.482"}
{"sequence": "CCUACUCUCUCGUAGACUCTT against MGC69750", "z-score": "inactive: -1.37"}
{"sequence": "GGAGGCUUCUAUUGCCAUATT against Olfr380", "z-score": "inactive: -0.0518"}
{"sequence": "GCUCAUUCCAGCAGUAAUGTT against Taf6", "z-score": "inactive: 0.154"}
{"sequence": "GCGGUCACACCAAAAGUCATT against Olfr1466", "z-score": "inactive: -0.337"}
{"sequence": "CGCCCAUCUACGUUUUUACTT against Neil1", "z-score": "inactive: 0.328"}
{"sequence": "GCUACUCAUUUAGCAGAGATT against Olfr76", "z-score": "inactive: -0.761"}
{"sequence": "GGCAUCGAUGAACUCUACUTT against A730013G03Rik", "z-score": "inactive: -1.91"}
{"sequence": "GGCAUUGACUAUGAGAUAGTT against Gstz1", "z-score": "inactive: -0.236"}
{"sequence": "GGUUCCAUUCUUGUCACCCTT against Lifr", "z-score": "inactive: 1.12"}
{"sequence": "GGAGUUCAAGUAUACGUGUTT against Clic3", "z-score": "inactive: 0.837"}
{"sequence": "GGAUCCGUAUUCAGAUUUATT against Nrk", "z-score": "inactive: -0.181"}
{"sequence": "GGGACAGUUUGGUGAAGGCTT against 3110045G13Rik", "z-score": "inactive: -1.08"}
{"sequence": "GGUACAAAUGCAUUGAGAGTT against Fcamr", "z-score": "inactive: -1.62"}
{"sequence": "GCGACAAUAUGAGUCACCUTT against MGC58341", "z-score": "inactive: 0.491"}
{"sequence": "GGGUAGAUUGAUUGUUGGATT against LOC212871", "z-score": "inactive: -1.21"}
{"sequence": "GGAAAUUCGUGCAUGAAGATT against Rutbc1", "z-score": "inactive: -0.58"}
{"sequence": "CCAAUGAUGAAUCCCUUCATT against Olfr781", "z-score": "inactive: -0.93"}
{"sequence": "GCCAUUCACUUAAUUCAGUTT against Hist1h2ae", "z-score": "inactive: 0.663"}
{"sequence": "GGGAGAUGGACAAGGUUACTT against AJ554213", "z-score": "inactive: -0.609"}
{"sequence": "GGAGAAUGUGUAGCUGUGATT against 9230102I19Rik", "z-score": "inactive: -1.59"}
{"sequence": "GCCACUGGAGUAUAGCCAGTT against Pcnxl3", "z-score": "inactive: 0.527"}
{"sequence": "GGGAACUGUUCAAAAAGACTT against D1Bwg0212e", "z-score": "inactive: -0.0995"}
{"sequence": "GGUAUUUAGAAACAUCAGUTT against 5031439A09Rik", "z-score": "inactive: 0.562"}
{"sequence": "GGAGAUCUGCCAGUGGAAATT against 2010319C14Rik", "z-score": "inactive: -0.175"}
{"sequence": "GGGAGAGUCAAAAAAAGAUTT against Khdrbs1", "z-score": "active: 2.83"}
{"sequence": "UCGAUAGCCUCAAUCAGCATT against A530094I17Rik", "z-score": "inactive: -0.369"}
{"sequence": "CUGAAACAUCCGUACACUCTT against Svs3", "z-score": "inactive: -0.95"}
{"sequence": "GGUUUACGAAUUCUAUCCATT against AI841794", "z-score": "inactive: 2.32"}
{"sequence": "GCUUUUGAUCGCAAUACAGTT against Spag9", "z-score": "inactive: 0.0872"}
{"sequence": "CGAAGUGACUGGAAAAAAATT against Wbp2", "z-score": "inactive: -1.37"}
{"sequence": "AGUGUAACUGCAGAAGCCUTT against Olfr207", "z-score": "inactive: 1.07"}
{"sequence": "GGAACACCGAACAUAAAUATT against Gm610", "z-score": "inactive: -0.526"}
{"sequence": "GGAACUGUUUGACAGUGAGTT against Pex19", "z-score": "inactive: -1.84"}
{"sequence": "GUGAAGAAAGUCAUCAAGATT against Olfr1506", "z-score": "inactive: 1.78"}
{"sequence": "GGAGUGCACUGCAUCAUGUTT against 2810417J12Rik", "z-score": "inactive: 0.846"}
{"sequence": "GGUUUUUAAGUGAUCCUUUTT against 6030443O07Rik", "z-score": "inactive: 0.277"}
{"sequence": "GGAUUUUGUUCUUCAUCCATT against Nedd4", "z-score": "inactive: 0.00914"}
{"sequence": "GCCAUAAUAAUCAAUGUGATT against Galm", "z-score": "inactive: 0.0141"}
{"sequence": "CAGCAUCUUUGAUUGUCUGTT against Tssc4", "z-score": "inactive: 0.302"}
{"sequence": "GCACAUUUAACCAAAAAGCTT against 2310011G06Rik", "z-score": "inactive: 0.148"}
{"sequence": "GUGAAGACAUCAGCAGACUTT against 0610012D14Rik", "z-score": "inactive: -1.49"}
{"sequence": "GGUACAAACGUGUAGUAUCTT against E130306I01Rik", "z-score": "inactive: 1.01"}
{"sequence": "GGUAACAAGAGGUCUAGCATT against P2ry1", "z-score": "inactive: 1.22"}
{"sequence": "GCAGUAAAAUGACAUUUGGTT against 1700027J05Rik", "z-score": "inactive: -0.144"}
{"sequence": "CCCUUGUACAAUAAUAAAGTT against 2010100O12Rik", "z-score": "inactive: 1.27"}
{"sequence": "GCUUUCAUGUCCUAAAGAATT against 4921504E06Rik", "z-score": "inactive: -1.19"}
{"sequence": "GCCGUUUACGUUUAUUGUUTT against Cutl2", "z-score": "inactive: -0.0904"}
{"sequence": "CCUGGUGCAUGCUUUAAUATT against Kynu", "z-score": "inactive: 0.892"}
{"sequence": "GCCACUUACACUUACUUGATT against Olfr1331", "z-score": "inactive: 1.17"}
{"sequence": "CCAUCUACGAUCAAGAGAATT against Cryba1", "z-score": "inactive: -0.711"}
{"sequence": "GGAAUGUGCUCAUUUUUGATT against Hspa8", "z-score": "inactive: -3.09"}
{"sequence": "GGAUUUCUUCAAGUCCUUGTT against Scgb1a1", "z-score": "inactive: 0.357"}
{"sequence": "GGCCAUAUUGGAGCAAAUCTT against Nppa", "z-score": "inactive: -1.6"}
{"sequence": "GGUCCUAAAAAACUGAGCUTT against Frag1", "z-score": "inactive: 0.859"}
{"sequence": "GAGAAACACCAUCUCCUAUTT against Olfr502", "z-score": "inactive: 0.515"}
{"sequence": "GCAGGUGCCUUCAAAAACCTT against Gm424", "z-score": "inactive: 2"}
{"sequence": "CCUGAUCUGUGGCACGGAUTT against Spink4", "z-score": "inactive: -1.17"}
{"sequence": "GGAUGAAGUGCUAAUAGGATT against ORF9", "z-score": "inactive: -0.0918"}
{"sequence": "GCUUUGAGAACCUUGGUAATT against Rab9b", "z-score": "inactive: -1.02"}
{"sequence": "GGAUAGUGAAGUCAUUGAATT against 2610016F04Rik", "z-score": "inactive: -0.0186"}
{"sequence": "GGUGAAGGUCAGCAAAGAATT against Exosc5", "z-score": "inactive: -1.08"}
{"sequence": "CCUACAGCGAGCUAUUUCATT against Epc2", "z-score": "inactive: -1.53"}
{"sequence": "GCAACUGUACACUAGAUACTT against Tes3", "z-score": "inactive: -0.32"}
{"sequence": "CGAAUGUGGCUAUGACCUGTT against Kif6", "z-score": "inactive: -0.204"}
{"sequence": "GGGCAUGUUCACCAUCAGATT against Sec1", "z-score": "inactive: 1.43"}
{"sequence": "GCCUCUUUUCACACUUAAATT against Olfr608", "z-score": "inactive: 0.235"}
{"sequence": "GGGUCAAUCUAAAUAUGUGTT against 0610008C08Rik", "z-score": "inactive: -0.201"}
{"sequence": "GGAUAUGGACUAUUCACGGTT against Dgat1", "z-score": "inactive: 0.949"}
{"sequence": "CCCAGCAUACCAUCUCUACTT against Arhgef1", "z-score": "inactive: -0.132"}
{"sequence": "GGAACUGAAUGCUCUUCCATT against Msln", "z-score": "inactive: 1.47"}
{"sequence": "GGUGGUAGUUUAUGAUCAATT against Dusp16", "z-score": "inactive: -1.72"}
{"sequence": "AAACUUGGCGUAUCAGGAATT against LOC544988", "z-score": "inactive: -0.337"}
{"sequence": "GGCAAAGGCACUGUCAGUGTT against BC013672", "z-score": "inactive: -0.289"}
{"sequence": "GCACAGGUCUAAUUCGUCUTT against Grik1", "z-score": "inactive: -0.209"}
{"sequence": "GCCGAUGAAGACCUUAGUCTT against 4933433C09Rik", "z-score": "inactive: 0.383"}
{"sequence": "GGAAGAUGGGCAAGAUGAUTT against 1200013B08Rik", "z-score": "inactive: -3.01"}
{"sequence": "GGCAACAAUGGUUGUCUUGTT against Ctsr", "z-score": "inactive: -0.194"}
{"sequence": "GGCCAACGUGGAGUUAUCATT against Hadh2", "z-score": "inactive: 1.85"}
{"sequence": "GGAACAAUAUAUCUUCAUCTT against Ptpru", "z-score": "inactive: 0.255"}
{"sequence": "GGAUCUGGUGAAACUAGCUTT against Psmd4", "z-score": "inactive: -3.33"}
{"sequence": "GGGCUAUGCCUACUACACUTT against Fn3k", "z-score": "inactive: 0.584"}
{"sequence": "CCUUUCCCUCCAUUUAGGGTT against Sit", "z-score": "inactive: 0.484"}
